Source: patent publication US20080103095A1
Results are given in words; binding and its absence hold for the method and conditions named. For part of these data: Binding seen in cells or lysates may run through a third protein. Some entries that bind do so weakly or less than the wild type. Where a sequence is shown, tags or fusion partners need not be part of it.

Amino acid sequences for entries named in this document (tags omitted).
UniProt P14602: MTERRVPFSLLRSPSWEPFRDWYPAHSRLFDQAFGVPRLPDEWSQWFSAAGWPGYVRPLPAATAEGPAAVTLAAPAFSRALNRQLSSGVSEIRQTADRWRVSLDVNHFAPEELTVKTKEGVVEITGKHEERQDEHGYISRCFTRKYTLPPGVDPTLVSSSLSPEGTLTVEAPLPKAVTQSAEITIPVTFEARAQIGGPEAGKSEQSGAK

Columns and labels:
[1] = target: recombinant murine hsp25 (StressGen Biotechnological Corp) (murine) (UniProt P14602); assay: co-immunoprecipitation of purified protein pairs, anti-His blot
[2] = target: recombinant murine hsp25 (StressGen Biotechnological Corp) (murine) (UniProt P14602); assay: in vitro, purified proteins
[3] = target: recombinant murine hsp25 (StressGen Biotechnological Corp) (murine) (UniProt P14602); assay: co-immunoprecipitation of purified protein pairs

Measured: binding

B1: recombinant His-tagged full-length hsp110 expressed in E. coli (Example 7) (protein, UniProt Q60446 1-858, looked up)
chain: MSVVGLDVGSQSCYIAVARAGGIETIANEFSDRCTPSVISFGPKNRTIGVAAKNQQITHANNTVSSFKRFHGRAFSDPFIQKEKESLSYDLVPMKNGGVGIKVMYMDEEHLFSVEQITAMLLTKLKETAENNLKKPVTDCVISVPSFFTDAERRSVLDAAQIVGLNCLRLMNDMTAVALNYGIYKQDLPNADEKPQGSGVCGHGPSSFQVSACAFNKGKLKVLGTAFDPFLGGKNFDEKLVEHFCAEFKTKYKLDAKSKIRALLRLHQECEKLKKLMSSNSTDLPLNIECFMNDKDVSAKMNRSQFEELCAELLQKIEVPLHSLMEQTHLKTEDVSAIEIVGGATRIPAVKERIAKFFGKDVSTTLNADEAVARGCALQCAILSPAFKVREFSVTDAVPFPISLVWNHDSEETEGVHEVFSRNHAAPFSKVLTFLRRGPFELEAFYSDPQGVPYPEAKIGRFVVQNVSAQKDGEKSKVKVKVRVNTHGIFTISTASMVEKVPTEEDDGSSVEADMECPNQKPAESSDVDKNSQQDNSEAGTQPQVQTDGQQTSQSPPSPELPSEENKIPDADKANEKKVDQPPEAKKPKIKVVNVELPVEANLVWQLGRDLLNMYIETEGKMIMQDKLEKERNDAKNAVEECVYEFRDKLCGPYEKFICQQEHEKFLRLLTETEDWLYEEGEDQAKQAYIDKLEELMKMGNPVKVRFQEAEERPKVLEELGQRLQHYAKIAADFRSKDEKYNHIDESEMKKVEKSVNEVMEWMNNVMNAQAKRSLDQDPVVRTHEIRAKVKELNNVCEPVVNQPKPKIESPKLERTPNGPNLDKKEDLEGKDNFGAEAPHQNGECHPNEKGSVNMDLD
binds: all assays above
